Results are given in words; binding and its absence hold for the method and conditions named. Binding seen in cells or lysates may run through a third protein. Some binding calls cover weakened binding; strength is not graded here. Sequences can lack the tags named with a protein. Each block holds one binder with its values, some of them ahead of it.
Biological target: GST-p52 (mouse) (UniProt Q99JF8)
Assay: pull-down; GST-p52 or GST-PWWP on glutathione beads incubated with lysates of 293T cells overexpressing tagged SR proteins, GST lysis buffer, 5 washes; immunoblot with αT7 or αGFP; only the target purified

Protein sequences, listed by entry. Tags and fused reporters are not part of them. Lines headed by an entry give the natural chain unless they say otherwise; changes in a name come on top. Chains listed by the source or under a name are the forms on record and can include a tag or linker.
GST-p52 (Q99JF8, form named): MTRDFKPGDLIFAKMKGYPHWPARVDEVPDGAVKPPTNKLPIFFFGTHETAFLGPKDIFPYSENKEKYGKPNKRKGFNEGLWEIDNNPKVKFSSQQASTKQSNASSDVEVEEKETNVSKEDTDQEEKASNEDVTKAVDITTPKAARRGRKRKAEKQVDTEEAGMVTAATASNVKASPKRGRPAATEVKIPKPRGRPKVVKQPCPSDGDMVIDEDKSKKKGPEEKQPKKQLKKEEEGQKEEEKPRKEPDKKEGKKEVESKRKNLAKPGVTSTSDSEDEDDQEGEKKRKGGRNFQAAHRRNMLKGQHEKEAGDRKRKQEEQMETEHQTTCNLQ

binding: binds
B1: T7-SRSF3 (protein, UniProt P84103 1-164)
chain: MHRDSCPLDCKVYVGNLGNNGNKTELERAFGYYGPLRSVWVARNPPGFAFVEFEDPRDAADAVRELDGRTLCGCRVRVELSNGEKRSRNRGPPPSWGRRPRDDYRRRSPPPRRRSPRRRSFSRSRSRSLSRDRRRERSLSRERNHKPSRSFSRSRSRSRSNERK

binding: no binding
B2: GFP-SRSF2 (protein, UniProt Q01130 1-221)
chain: MSYGRPPPDVEGMTSLKVDNLTYRTSPDTLRRVFEKYGRVGDVYIPRDRYTKESRGFAFVRFHDKRDAEDAMDAMDGAVLDGRELRVQMARYGRPPDSHHSRRGPPPRRYGGGGYGRRSRSPRRRRRSRSRSRSRSRSRSRSRYSRSKSRSRTRSRSRSTSKSRSARRSKSKSSSVSRSRSRSRSRSRSRSPPPVSKRESKSRSRSKSPPKSPEEEGAVSS
